Measurements: US9045390B2, “Haloalkylmethyleneoxyphenyl-substituted ketoenols” (Bayer CropScience AG, priority 2009, dated 2015)
Some entries share one result that the patent states for a list of compounds.

How the values were obtained:
Assay type in all cases: in vivo
[1] = tested on: two-spotted spider mite (Tetranychus urticae); test: Tetranychus test; OP-resistant (TETRUR spray treatment); conditions: french bean leaf discs
Alopecurus myosuroides [2] = test: Herbicidal pre-emergence action; conditions: approx. three weeks
Lolium multiflorum [3] = test: Herbicidal pre-emergence action; conditions: approx. three weeks
Setaria viridis [4] = test: Herbicidal pre-emergence action; conditions: approx. three weeks
[5] = tested on: larvae of the mustard beetle (Phaedon cochleariae); test: Phaedon test (PHAECO spray treatment); conditions: application rate 500 g/ha, Chinese cabbage leaf discs
Echinocloa crus-galli [6] = test: Herbicidal pre-emergence action; conditions: approx. three weeks
[7] = tested on: green peach aphid (Myzus persicae); test: Myzus test (MYZUPE spray treatment); conditions: application rate 500 g/ha, Chinese cabbage leaf discs
Procedure: Myzus Test (MYZUPE Spray Treatment)
To prepare an appropriate active ingredient preparation, 1 part by weight of active ingredient is mixed with the stated amounts of solvent and emulsifier, and the concentrate is diluted with emulsifier-containing water to the desired concentration.
Discs of Chinese cabbage (Brassica pekinensis) infected by all stages of the green peach aphid (Myzus persicae) are sprayed with an active ingredient preparation of the desired concentration.
After the desired time, the effect in % is determined. 100% means that all of the aphids have been killed; 0% means that none of the aphids have been killed.

Echinocloa crus-galli [8] = test: Herbicidal post-emergence action; conditions: 80 g/ha, about three weeks
Alopecurus myosuroides [9] = test: Herbicidal post-emergence action; conditions: 80 g/ha, about three weeks
Veronica persica = test: Herbicidal post-emergence action; conditions: 80 g/ha, about three weeks
Avena fatua = test: Herbicidal post-emergence action; conditions: 80 g/ha, about three weeks
Lolium multiflorum [10] = test: Herbicidal post-emergence action; conditions: 80 g/ha, about three weeks
Setaria viridis [11] = test: Herbicidal post-emergence action; conditions: 80 g/ha, about three weeks
[12] = tested on: caterpillars of the army worm (Spodoptera frugiperda); test: Spodoptera frugiperda test (SPODFR spray treatment); conditions: application rate 500 g/ha, maize leaf discs
Boophilus microplus = Boophilus microplus test (BOOPMI injection); conditions: application rate 20 ppm, injection into the abdomen
Meloidogyne incognita = Meloidogyne incognita test (MELGIN); conditions: application rate 20 ppm, lettuce
Lucilia cuprina larvae = test: Lucilia cuprina test (LUCICU); conditions: application rate 100 ppm, treated horse meat

CCc1cc(OCC(F)(F)F)cc(C)c1C1=C(O)C(C)(C)NC1=O [Example I-1-a-16]
≥ 80%: effect in % (spider mites killed) ([1]; application rate 20 g/ha) | herbicidal effect in per cent (Alopecurus myosuroides [2]; 320 g/ha a.i.) | herbicidal effect in per cent (Lolium multiflorum [3]; 320 g/ha a.i.) | herbicidal effect in per cent (Setaria viridis [4]; 320 g/ha a.i.) | effect in % (beetle larvae killed) [5] | herbicidal effect in per cent (Echinocloa crus-galli [6]; 320 g/ha a.i.)

Cc1ccc(OCC(F)(F)F)cc1C1=C(O)C2(CCOCC2)NC1=O [Example I-1-a-30]
≥ 80%: effect in % (spider mites killed) ([1]; application rate 100 g/ha) | effect in % (beetle larvae killed) [5] | effect in % (aphids killed) [7]

CCOC1CCCC2(CC1)NC(=O)C(c1c(C)cc(OCC(F)(F)F)cc1CC)=C2O (stereo not shown) [Example I-1-a-5]
≥ 80%: herbicidal effect in per cent (Echinocloa crus-galli [8]) | herbicidal effect in per cent (Alopecurus myosuroides [9]) | herbicidal effect in per cent (Veronica persica) | effect in % (spider mites killed) ([1]; application rate 100 g/ha) | herbicidal effect in per cent (Alopecurus myosuroides [2]; 80 g/ha a.i.) | herbicidal effect in per cent (Lolium multiflorum [3]; 80 g/ha a.i.) | herbicidal effect in per cent (Setaria viridis [4]; 80 g/ha a.i.) | herbicidal effect in per cent (Avena fatua) | herbicidal effect in per cent (Lolium multiflorum [10]) | herbicidal effect in per cent (Echinocloa crus-galli [6]; 80 g/ha a.i.) | herbicidal effect in per cent (Setaria viridis [11]) | effect in % (aphids killed) [7]

CCOC1CCC2(CC1)NC(=O)C(c1c(C)ccc(OCC(F)(F)F)c1C)=C2O (mixture of isomers) [Example I-1-a-28]
≥ 80%: effect in % (spider mites killed) ([1]; application rate 100 g/ha) | effect in % (caterpillars killed) [12] | effect in % (beetle larvae killed) [5] | effect in % (aphids killed) [7]

Cc1ccc(OCC(F)(F)F)c(C)c1C1=C(O)C2(CCOCC2)NC1=O [Example I-1-a-31]
≥ 80%: effect in % (spider mites killed) ([1]; application rate 100 g/ha) | effect in % (beetle larvae killed) [5] | effect in % (aphids killed) [7]

CCc1cc(OCC(F)(F)F)cc(C)c1C1=C(O)C2(CCC3(CC2)OCC(C)O3)NC1=O (stereo not shown) [Example I-1-a-7]
≥ 80%: herbicidal effect in per cent (Echinocloa crus-galli [8]) | herbicidal effect in per cent (Alopecurus myosuroides [9]) | effect in % (spider mites killed) ([1]; application rate 100 g/ha) | herbicidal effect in per cent (Alopecurus myosuroides [2]; 320 g/ha a.i.) | herbicidal effect in per cent (Lolium multiflorum [3]; 320 g/ha a.i.) | herbicidal effect in per cent (Setaria viridis [4]; 320 g/ha a.i.) | herbicidal effect in per cent (Avena fatua) | herbicidal effect in per cent (Lolium multiflorum [10]) | effect in % (laying of fertile eggs) (Boophilus microplus) | herbicidal effect in per cent (Echinocloa crus-galli [6]; 320 g/ha a.i.) | herbicidal effect in per cent (Setaria viridis [11]) | effect in % (aphids killed) [7]

COC1CCC2(CC1)NC(=O)C(c1c(C)cc(OCC(F)(F)F)cc1C)=C2O (stereo not shown) [Example I-1-a-25]
≥ 80%: nematicidal effect by gall formation in % (Meloidogyne incognita) | herbicidal effect in per cent (Echinocloa crus-galli [8]) | herbicidal effect in per cent (Alopecurus myosuroides [9]) | herbicidal effect in per cent (Veronica persica) | effect in % (spider mites killed) ([1]; application rate 100 g/ha) | herbicidal effect in per cent (Alopecurus myosuroides [2]; 80 g/ha a.i.) | herbicidal effect in per cent (Lolium multiflorum [3]; 80 g/ha a.i.) | kill in % (Lucilia cuprina larvae) | herbicidal effect in per cent (Setaria viridis [4]; 80 g/ha a.i.) | herbicidal effect in per cent (Avena fatua) | herbicidal effect in per cent (Lolium multiflorum [10]) | effect in % (laying of fertile eggs) (Boophilus microplus) | herbicidal effect in per cent (Echinocloa crus-galli [6]; 80 g/ha a.i.) | herbicidal effect in per cent (Setaria viridis [11]) | effect in % (aphids killed) [7]

CCCOC1CCCC2(C1)NC(=O)C(c1c(C)cc(OCC(F)(F)F)cc1CC)=C2O (stereo not shown) [Example I-1-a-14]
≥ 80%: herbicidal effect in per cent (Echinocloa crus-galli [8]) | herbicidal effect in per cent (Alopecurus myosuroides [9]) | effect in % (spider mites killed) ([1]; application rate 100 g/ha) | herbicidal effect in per cent (Alopecurus myosuroides [2]; 320 g/ha a.i.) | herbicidal effect in per cent (Lolium multiflorum [3]; 320 g/ha a.i.) | herbicidal effect in per cent (Setaria viridis [4]; 320 g/ha a.i.) | herbicidal effect in per cent (Avena fatua) | herbicidal effect in per cent (Lolium multiflorum [10]) | effect in % (beetle larvae killed) [5] | herbicidal effect in per cent (Echinocloa crus-galli [6]; 320 g/ha a.i.) | herbicidal effect in per cent (Setaria viridis [11]) | effect in % (aphids killed) [7]

CCc1cc(OCC(F)(F)F)cc(C)c1C1=C(O)C2(CCC3(CC2)OC(C)CC(C)O3)NC1=O (stereo not shown) [Example I-1-a-10]
≥ 80%: effect in % (spider mites killed) ([1]; application rate 100 g/ha) | effect in % (aphids killed) [7]

Cc1cc(OCC(F)(F)F)cc(C)c1C1=C(O)C2(CCOCC2)NC1=O [Example I-1-a-26]
≥ 80%: herbicidal effect in per cent (Echinocloa crus-galli [8]) | herbicidal effect in per cent (Alopecurus myosuroides [9]) | herbicidal effect in per cent (Veronica persica) | effect in % (spider mites killed) ([1]; application rate 100 g/ha) | herbicidal effect in per cent (Avena fatua) | herbicidal effect in per cent (Lolium multiflorum [10]) | herbicidal effect in per cent (Setaria viridis [11]) | effect in % (aphids killed) [7]

CCCOC1CCCC2(C1)NC(=O)C(c1c(C)cc(OCC(F)(F)F)cc1C)=C2O (stereo not shown) [Example I-1-a-19]
≥ 80%: herbicidal effect in per cent (Echinocloa crus-galli [8]) | herbicidal effect in per cent (Alopecurus myosuroides [9]) | herbicidal effect in per cent (Veronica persica) | effect in % (spider mites killed) ([1]; application rate 20 g/ha) | herbicidal effect in per cent (Alopecurus myosuroides [2]; 320 g/ha a.i.) | herbicidal effect in per cent (Lolium multiflorum [3]; 320 g/ha a.i.) | herbicidal effect in per cent (Setaria viridis [4]; 320 g/ha a.i.) | herbicidal effect in per cent (Avena fatua) | herbicidal effect in per cent (Lolium multiflorum [10]) | effect in % (beetle larvae killed) [5] | herbicidal effect in per cent (Echinocloa crus-galli [6]; 320 g/ha a.i.) | herbicidal effect in per cent (Setaria viridis [11]) | effect in % (aphids killed) [7]

COCC1CCC2(CC1)NC(=O)C(c1c(C)cc(OCC(F)(F)F)cc1C)=C2O (stereo not shown) [Example I-1-a-17]
≥ 80%: herbicidal effect in per cent (Echinocloa crus-galli [8]) | herbicidal effect in per cent (Alopecurus myosuroides [9]) | herbicidal effect in per cent (Veronica persica) | effect in % (spider mites killed) ([1]; application rate 100 g/ha) | herbicidal effect in per cent (Alopecurus myosuroides [2]; 80 g/ha a.i.) | herbicidal effect in per cent (Lolium multiflorum [3]; 80 g/ha a.i.) | herbicidal effect in per cent (Setaria viridis [4]; 80 g/ha a.i.) | herbicidal effect in per cent (Avena fatua) | herbicidal effect in per cent (Lolium multiflorum [10]) | herbicidal effect in per cent (Echinocloa crus-galli [6]; 80 g/ha a.i.) | herbicidal effect in per cent (Setaria viridis [11]) | effect in % (aphids killed) [7]

CCc1cc(OCC(F)(F)F)cc(CC)c1C1=C(O)C2(CCC(OC)CC2)NC1=O (stereo not shown) [Example I-1-a-4]
≥ 80%: herbicidal effect in per cent (Echinocloa crus-galli [8]) | herbicidal effect in per cent (Alopecurus myosuroides [9]) | herbicidal effect in per cent (Veronica persica) | effect in % (spider mites killed) ([1]; application rate 100 g/ha) | herbicidal effect in per cent (Alopecurus myosuroides [2]; 80 g/ha a.i.) | herbicidal effect in per cent (Lolium multiflorum [3]; 80 g/ha a.i.) | herbicidal effect in per cent (Setaria viridis [4]; 80 g/ha a.i.) | herbicidal effect in per cent (Avena fatua) | herbicidal effect in per cent (Lolium multiflorum [10]) | herbicidal effect in per cent (Echinocloa crus-galli [6]; 80 g/ha a.i.) | herbicidal effect in per cent (Setaria viridis [11]) | effect in % (aphids killed) [7]

CCc1cc(OCC(F)(F)F)cc(C)c1C1=C(O)C2(CCC(OC)CC2)NC1=O (stereo not shown) [Example I-1-a-3]
≥ 80%: herbicidal effect in per cent (Echinocloa crus-galli [8]) | herbicidal effect in per cent (Alopecurus myosuroides [9]) | effect in % (spider mites killed) ([1]; application rate 100 g/ha) | herbicidal effect in per cent (Alopecurus myosuroides [2]; 80 g/ha a.i.) | herbicidal effect in per cent (Lolium multiflorum [3]; 80 g/ha a.i.) | kill in % (Lucilia cuprina larvae) | herbicidal effect in per cent (Setaria viridis [4]; 80 g/ha a.i.) | herbicidal effect in per cent (Avena fatua) | herbicidal effect in per cent (Lolium multiflorum [10]) | effect in % (beetle larvae killed) [5] | effect in % (laying of fertile eggs) (Boophilus microplus) | herbicidal effect in per cent (Echinocloa crus-galli [6]; 80 g/ha a.i.) | herbicidal effect in per cent (Setaria viridis [11]) | effect in % (aphids killed) [7]

CCc1cc(OCC(F)(F)F)cc(C)c1C1=C(O)C2(CCC3(CC2)OCCO3)NC1=O [Example I-1-a-6]
≥ 80%: herbicidal effect in per cent (Echinocloa crus-galli [8]) | herbicidal effect in per cent (Alopecurus myosuroides [9]) | herbicidal effect in per cent (Veronica persica) | effect in % (spider mites killed) ([1]; application rate 100 g/ha) | herbicidal effect in per cent (Alopecurus myosuroides [2]; 320 g/ha a.i.) | herbicidal effect in per cent (Lolium multiflorum [3]; 320 g/ha a.i.) | herbicidal effect in per cent (Setaria viridis [4]; 320 g/ha a.i.) | herbicidal effect in per cent (Avena fatua) | herbicidal effect in per cent (Lolium multiflorum [10]) | herbicidal effect in per cent (Echinocloa crus-galli [6]; 320 g/ha a.i.) | herbicidal effect in per cent (Setaria viridis [11]) | effect in % (aphids killed) [7]

CCc1cc(OCC(F)(F)F)cc(C)c1C1=C(O)C2(CCC(C)CC2)NC1=O (stereo not shown) [Example I-1-a-8]
≥ 80%: herbicidal effect in per cent (Echinocloa crus-galli [8]) | herbicidal effect in per cent (Alopecurus myosuroides [9]) | herbicidal effect in per cent (Veronica persica) | effect in % (spider mites killed) ([1]; application rate 100 g/ha) | herbicidal effect in per cent (Alopecurus myosuroides [2]; 80 g/ha a.i.) | herbicidal effect in per cent (Lolium multiflorum [3]; 80 g/ha a.i.) | herbicidal effect in per cent (Setaria viridis [4]; 80 g/ha a.i.) | herbicidal effect in per cent (Avena fatua) | herbicidal effect in per cent (Lolium multiflorum [10]) | effect in % (beetle larvae killed) [5] | herbicidal effect in per cent (Echinocloa crus-galli [6]; 80 g/ha a.i.) | herbicidal effect in per cent (Setaria viridis [11]) | effect in % (aphids killed) [7]

CCC1(OC)CCC2(CC1)NC(=O)C(c1c(C)cc(OCC(F)(F)F)cc1C)=C2O (mixture of isomers) [Example I-1-a-32]
≥ 80%: effect in % (spider mites killed) ([1]; application rate 100 g/ha) | effect in % (caterpillars killed) [12] | effect in % (beetle larvae killed) [5] | effect in % (aphids killed) [7]
